Experimental findings from patent US10519109B2, “Glycopyrronium fatty acid salts and methods of making same” (QAAM PHARMACEUTICALS, LLC, priority 2015, dated 2019) are described below.

The conditions of data set [1]: With excess free lauric acid (1.1 eq.); after mixing overnight at room temperature.
Assay in data set [2]: not given
The source holds these as a separate data set.

Assay in data set [3]: not given
This is another data set of the same source.

[4] abbreviates: after vacuum oven at 50° C. over the weekend, MTBE/n-heptane Bottom Layer.
Where [5] appears, read: after vacuum oven at 50° C. over the weekend, MTBE/n-heptane Top Layer.
The mark [6] stands for this setting: Expt. 0: Initial Me-THF Solution.
The mark [7] stands for this setting: Me-THF Layer (final), repeated 5.0 g scale preparation.
Where [8] appears, read: Me-THF layer after overnight ambient.

Where “and” joins values, the source holds several entries; their conditions need not be identical. Equal values may be shown once. Read-outs that look alike come from different tables or passages of the source.

For `C[N+]1(C)CCC(OC(=O)C(O)(c2ccccc2)C2CCCC2)C1` (stereo not drawn) [glycopyrronium stearate], under “first month of use”, the ““Acid A” observation by HPLC” value is “not observed”. The “GP % AUC Purity” value is, setting by setting: (new, freshly isolated sample) 95.89% AUC; (retest after ~4 months at ambient conditions) 87.33% AUC. Moreover, the ““Acid A” % w/w” value is listed as 0.13% w/w (new, freshly isolated sample) and 2.44 % w/w (retest after ~4 months at ambient conditions, listed as EE-008-001-3B). Moreover, the ““Acid A” AUC %” value by setting is: (new, freshly isolated sample) 0.50% AUC %; (retest after ~4 months at ambient conditions, relative to glycopyrronium content, listed as EE-008-001-3B) 9.29 AUC % and 9.29% AUC %.
On to `C[N+]1(C)CCC(OC(=O)C(O)(c2ccccc2)C2CCCC2)C1` (stereo not drawn) [glycopyrronium laurate], for which, in data set [1], the “formation of the by-product Acid A” value is on record as “no formation”. For the same molecule, the “HPLC Results (AUC) Acid A” value in data set [2] (Oil Product, before drying) is reported as 4.84%; in data set [2] (setting [4]) it was 15.06%; in data set [2] (setting [5]) it was 12.37%; in data set [3] (setting [7]), 4.12%; in data set [3] (setting [8]), 6.07%. Besides, the “HPLC Results (AUC) Glycopyrronium” value in data set [2] (Oil Product, before drying) is 93.82%; in data set [2] (setting [4]), 83.94%; in data set [2] (setting [5]) it was 86.80%; in data set [3] (setting [7]), 91.06%; in data set [3] (setting [8]) it was 90.67%. Besides, the “HPLC Results Acid A” value in data set [3] (setting [6]) is recorded as 6.07% AUC %; in data set [3] (Expt. 1A: Me-THF Solution at RT over weekend), 9.26% AUC %; in data set [3] (Expt. 1B: Me-THF Solution at 50° C. over weekend, Bottom layer), 46.08% AUC %; in data set [3] (Expt. 1B: Me-THF Solution at 50° C. over weekend, Top layer) it was 40.08% AUC %; in data set [3] (Expt. 2A: Me-THF Solution in the presence of Lauric Acid at RT over weekend), 6.61% AUC %; in data set [3] (Expt. 2B: Me-THF Solution in the presence of Lauric Acid at 50° C. over weekend, Bottom layer), 30.01% AUC %. Further, the “HPLC Results Acid A” value in data set [3] (Expt. 2B: Me-THF Solution in the presence of Lauric Acid at 50° C. over weekend, Top layer) is listed as 28.36% AUC %. In data set [3] (setting [6]), the “HPLC Results Glycopyrronium” value was 90.67 AUC % and 90.67% AUC %. Also, in data set [3] (Me-THF solution at 50° C. over weekend with excess free lauric acid present (both layers)), the product content remaining is listed as 65-70 area %.
